Values from PubChem BioAssay AID1224828 (NIAID, 2016)

Screen: 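Find genes required for NF-kappaB p65 moving into the nucleus after LPS in mouse macrophages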 (primary screen)
Cell system: mouse RAW264.7 G9 macrophage reporter cells (GFP-p65, Tnf promoter-mCherry)
Reagents: siRNA pool against mouse genes, 100 nM
Duration: 2 days siRNA transfection, then 40 min LPS before fixation
Treatment: LPS (Salmonella minnesota R595) at 10 ng/ml
Detection: 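Microscopy ratio of nuclear to perinuclear-ring GFP-p65 signal, scaled to the plate median; gene score is the average of two replicate robust z-scores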
Scale: p65 translocation robust z-score: higher = more nuclear NF-kappaB p65 after LPS than the plate median; nuclear/cytoplasmic p65 ratio: higher = more nuclear NF-kappaB p65
Active means: 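Called active when z exceeds 3.3 or falls under -1.56 (median of Tlr4 controls), giving activity score of at least 50; no calls for control wells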
Calls: active = hit (p65 shift raised or lowered); inactive = no clear change
In all, the deposit lists about 17,000 reagents; this is an unselected part. In the full data, 762 (4.5%) got an active call. 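Active calls include both raised and lowered p65 entry, mostly lowered; wells with fewer than 50 cells lack a z-score.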 The raw values are shown without normalisation. Entries without a mark were called inactive. The numbers tell different reagents against one gene apart.

no.	gene symbol	pool no.	p65 translocation robust z-score	nuclear/cytoplasmic p65 ratio, rep 1	nuclear/cytoplasmic p65 ratio, rep 2	low cell count flag
1	Ptpdc1	1	0.85	1.86	1.63	enough cells to score
2	Dennd5b	1	0.7	1.62	1.96	enough cells to score
3	Dclre1a	1	0.31	1.52	1.4	enough cells to score
4	Aftph	1	-1.89 (active)	1.23	1.22	enough cells to score
5	H1f8	1		1.41	1.42	fewer than 50 cells per well; well left out of scoring
6	Jup	1	1.95	1.66	1.7	enough cells to score
7	Siah1b	1	-1.22	1.07	1.12	enough cells to score
8	Sprr2e	1	0.94	1.56	1.32	enough cells to score
9	Tada3	1	-0.12	1.52	1.49	enough cells to score
10	Zfp317	1	-0.79	1.31	1.16	enough cells to score
11	Hnf1b	1	-0.13	1.55	1.45	enough cells to score
12	Or4m1	1	-0.65	1.35	1.22	enough cells to score
13	Amy2a5	1	0.62	1.76	1.72	enough cells to score
14	5330438D12Rik	1	1.6	1.47	1.77	enough cells to score
15	Trmt112	1	-0.16	1.38	1.56	enough cells to score
16	Lzts3	1	-0.05	1.37	1.21	enough cells to score
17	Ddx55	1	0.67	1.44	1.87	enough cells to score
18	Plod2	1	-0.39	1.33	1.17	enough cells to score
19	Neurl1a	1	-1.09	1.2	1.21	enough cells to score
20	Pramel3a	1	1.54	1.58	1.39	enough cells to score
21	Zfp53	1	-0.43	1.34	1.21	enough cells to score
22	Slc30a6	1		0	1.26	fewer than 50 cells per well; well left out of scoring
23	Itga3	1	-0.26	1.39	1.39	enough cells to score
24	Rgs20	1	0.42	1.62	1.59	enough cells to score
25	Kmt5c	1	1.43	1.81	2.06	enough cells to score
26	Or2y6	1	1.43	1.66	1.58	enough cells to score
27	Or5ac25	1	-1.69 (active)	1.39	1.21	enough cells to score
28	Or5ac25	2	0.33	1.62	1.47	enough cells to score
29	Commd7	1	0	1.66	1.69	enough cells to score
30	Wbp1	1		1.46	1.19	fewer than 50 cells per well; well left out of scoring
31	1700067K01Rik	1	1.62	1.52	1.71	enough cells to score
32	Usp53	1	0.44	1.55	1.25	enough cells to score
33	Usp53	2	-0.15	1.46	1.4	enough cells to score
34	Cask	1	2.27	1.9	1.67	enough cells to score
35	Ly6g6d	1	-1.31	1.55	1.32	enough cells to score
36	Ly6g6d	2	-1.43	1.19	1.33	enough cells to score
37	Rnf14	1	0.25	1.51	1.6	enough cells to score
38	Cpn1	1	0.92	1.57	1.52	enough cells to score
39	H1f5	1	-0.91	1.61	1.32	enough cells to score
40	Dram2	1	0.48	1.51	1.48	enough cells to score
41	Inppl1	1	-0.9	1.35	1.24	enough cells to score
42	Il2ra	1	0.46	1.49	1.48	enough cells to score
43	Mterf2	1	-0.84	1.47	1.51	enough cells to score
44	B630019K06Rik	1	1.11	1.73	2.05	enough cells to score
45	Srsf1	1		1.4	1.16	fewer than 50 cells per well; well left out of scoring
46	Or5w1b	1	-1.05	1.6	1.33	enough cells to score
47	Pfdn4	1	-0.03	1.46	1.39	enough cells to score
48	Evx1	1	0.56	1.54	1.44	enough cells to score
49	Esyt2	1	-1.21	1.36	1.62	enough cells to score
50	Or7a37	1	1.88	1.74	1.9	enough cells to score
51	H2-DMb1	1	0.04	1.39	1.43	enough cells to score
52	Prp2	1		1.17	1.12	fewer than 50 cells per well; well left out of scoring
53	Dnase2a	1	0.8	1.57	1.49	enough cells to score
54	Ptprg	1	1.19	1.89	1.52	enough cells to score
55	Cd209b	1	-0.25	1.35	1.42	enough cells to score
56	Mlh1	1	-0.12	1.4	1.36	enough cells to score
57	Fbn2	1		1.46	1.5	fewer than 50 cells per well; well left out of scoring
58	Tollip	1	0.09	1.56	1.51	enough cells to score
59	Gtpbp4	1	-0.63	1.64	1.36	enough cells to score
60	Vmn1r199	1		1.22	0.848	fewer than 50 cells per well; well left out of scoring
61	Lrrn1	1	-2.1 (active)	1.47	1.17	enough cells to score
62	Abcc3	1	-0.44	1.5	1.6	enough cells to score
63	Gprc6a	1	0.63	1.49	1.78	enough cells to score
64	Apmap	1	1.43	1.48	1.54	enough cells to score
65	Or51f1e	1	-1.74 (active)	1.12	1.14	enough cells to score
66	Apoa5	1	0.71	1.76	1.56	enough cells to score
67	Ndufaf1	1	0.28	1.82	1.64	enough cells to score
68	Cuzd1	1	-0.73	1.42	1.72	enough cells to score
69	Uqcrh	1	0.78	1.83	1.63	enough cells to score
70	Hic2	1	0.7	1.56	1.66	enough cells to score
71	Tsga13	1	0.8	1.44	1.37	enough cells to score
72	Sash3	1	-0.59	1.32	1.34	enough cells to score
73	Slc39a10	1		0	1.51	fewer than 50 cells per well; well left out of scoring
74	Or8g27	1	-0.02	1.44	1.23	enough cells to score
75	Pxn	1	0.18	1.44	1.21	enough cells to score

Reprinted from the entries so far (5 entries):
no.	gene symbol	pool no.	p65 translocation robust z-score	nuclear/cytoplasmic p65 ratio, rep 1	nuclear/cytoplasmic p65 ratio, rep 2	low cell count flag
36	Ly6g6d	2	-1.43	1.19	1.33	enough cells to score
37	Rnf14	1	0.25	1.51	1.6	enough cells to score
38	Cpn1	1	0.92	1.57	1.52	enough cells to score
39	H1f5	1	-0.91	1.61	1.32	enough cells to score
40	Dram2	1	0.48	1.51	1.48	enough cells to score
